In PubChem BioAssay AID540276 (National Center for Advancing Translational Sciences (NCATS), 2011):
Hit rate of the full screen: of about 300,000 compounds, about 5,400 (1.8%) were called active. This list was built around the results that the source calls inconclusive (neither active nor inactive); the mix of calls is not that of the screen. The call rests on the fitted dose curve; tested in HEK293 cells. Potencies of inconclusive entries are doubtful fits and often do not repeat.

Assay: qHTS for inhibitors of binding or entry into cells for Marburg Virus
Settings: Marburg virus pseudotyped entry inhibition, cell reporter; series mostly up to 37.8 µM
Potency means the concentration at half of the fitted maximal effect.

Row | Structure (SMILES) | Potency
1 | CC(=O)C1=C(C)NC(SCC(N)=O)=C(C#N)C1c1ccco1 (stereo not drawn) | inconclusive: 7.94 µM [inhibitor, partial curve, poor fit]
2 | CN(Cc1nc(Cc2cccc(C(F)(F)F)c2)no1)C1CC(C)(C)NC(C)(C)C1 | inconclusive: 1.12 µM [inhibitor, partial curve, poor fit]
3 | CCC(C(=O)Nc1cc(C)cc(C)n1)c1ccccc1 (stereo not drawn) | inconclusive: 0.562 µM [inhibitor, full curve, poor fit]
4 | CC(=O)c1sc(Nc2nc3ccc(F)cc3s2)nc1C | inconclusive: 32.6 µM [inhibitor, single point]
5 | O=C(CCN1C(=O)S/C(=C\c2ccccc2)C1=O)Nc1ccc(O)cc1C(=O)O | inconclusive: 6.31 µM [inhibitor, single point]
6 | COc1cccc(CC(=O)Nc2ccc3nc(C)sc3c2)c1 | inconclusive: 35.5 µM [activator, single point]
7 | CCNC(=S)N/N=C(\C)c1ccc2ccccc2c1OC(F)F | inconclusive: 10 µM [inhibitor, partial curve, poor fit]
8 | Cc1ccc2nc(-c3ccc(NC(=O)COC(=O)c4ccc(=O)[nH]c4)cc3)sc2c1 | inconclusive: 7.31 µM [inhibitor, partial curve, poor fit]
9 | COc1ccc(-n2c(SC)nc3sc4c(c3c2=O)CCN(C(C)=O)C4)cc1 | inconclusive: 35.5 µM [inhibitor, single point]
10 | O=C(NN=C1CCN(Cc2ccccc2)CC1)c1cc2ccccc2cc1O | inactive
11 | c1ccc(-n2c3ccccc3c3ccccc32)cc1 | inconclusive: 25.1 µM [inhibitor, single point]
12 | COc1cc(OC)cc(-c2nc3ccccc3c(=O)o2)c1 | inactive
13 | C=CCn1c(COc2ccccc2F)nnc1SCC(=O)Nc1cc2oc3ccccc3c2cc1OC | inconclusive: 22.4 µM [inhibitor, single point]
14 | O=C(Nc1cc([N+](=O)[O-])ccc1F)c1cccs1 | inconclusive: 0.1 µM [activator, full curve, poor fit]
15 | COc1ccc(OC)c(NC(=O)C2COc3ccccc3O2)c1 (stereo not drawn) | inactive
16 | Cc1ccc(-c2nc3ccccc3s2)cc1NC(=S)NC(=O)/C=C/c1ccco1 | inconclusive: 15.8 µM [inhibitor, single point]
17 | CC(C)c1ccc(NNC(=O)C2CCC2)cc1 | inconclusive: 2.82 µM [activator, single point]
18 | CC(Sc1nc(=O)cc(N)n1CCc1ccccc1)C(=O)NCc1ccccc1 (stereo not drawn) | inconclusive: 0.631 µM [inhibitor, full curve, poor fit]
19 | CC(C)c1ccc(C2(C)NC(=O)N(CC(=O)NC3(C#N)CCCC3)C2=O)cc1 (stereo not drawn) | inconclusive: 3.16 µM [inhibitor, single point]
20 | O=C(NCC1CCCO1)c1csc2c1CCCCC2 (stereo not drawn) | inconclusive: 29.1 µM [activator, partial curve, poor fit]
21 | CC12CCC(C(NC(=S)NN)C1=O)C2(C)C (stereo not drawn) | inactive
22 | O=c1[nH]c(/C=C/c2ccccc2[N+](=O)[O-])nc2ccccc12 | inconclusive: 3.98 µM [activator, partial curve, poor fit]
23 | COc1ccc(C(=O)NC2CC2)cc1OC1CCN(Cc2ccc(F)cc2F)CC1 | inactive

Row | Structure (SMILES) | Potency
24 | O=C(NC(=S)Nc1ccc(Cc2ccncc2)cc1)c1ccccc1 | inconclusive: 2.82 µM [activator, single point]
25 | CCOc1cc2c(cc1OCC)-n1cccc1C(c1ccccc1F)NC2 (stereo not drawn) | inconclusive: 14.1 µM [inhibitor, partial curve, poor fit]
26 | CCCCN(C)C(=O)C1CCCN(S(=O)(=O)c2ccc3c(c2)CC(C)N3C(=O)C2CC2)C1 (stereo not drawn) | inactive
27 | O=C(O)/C=C/C(O)c1ccc(Cl)cc1 (stereo not drawn) | inactive
28 | CCCn1nnc(NC(=O)c2ccc(-c3ccccc3)cc2)n1 | inactive
29 | Oc1ccccc1CNc1cnc2ccccc2c1 | inconclusive: 6.51 µM [activator, single point]
30 | O=C(Nc1csc(Cl)c1)c1ccccc1 | inconclusive: 0.562 µM [activator, full curve, poor fit]
31 | Cc1cccc(CCn2c(=O)c3ccccc3n(Cc3ccccc3C)c2=O)c1 | inactive
32 | CCOC(=O)C1CCCN(S(=O)(=O)CCNC(=O)c2ccc(F)cc2)C1 (stereo not drawn) | inactive
33 | CC(=O)Nc1ccc(S(=O)(=O)NCC(=O)OCc2ccccc2)cc1 | inconclusive: 0.316 µM [activator, single point]
34 | O=C(Nc1cccc(S(=O)(=O)NC2=NCCCCC2)c1)c1cc(-c2ccccc2Cl)nc2ccccc12 | inconclusive: 29.1 µM [inhibitor, single point]
35 | O=C(c1cc(-c2cccs2)nc2ccccc12)N1CCN(c2ccccc2O)CC1 | inconclusive: 8.91 µM [inhibitor, partial curve, poor fit]
36 | CN1C[C@@H](O)[C@@H](O)[C@@H](O)[C@@H]1CO | inactive
37 | COc1ccc(C(C(=O)NCC2CCCO2)N(C(=O)CNC(=O)c2cccs2)c2ccc(C(C)=O)cc2)cc1OC (stereo not drawn) | inactive
38 | O=C(CCNC(=O)c1ccc(Br)cc1)NNC(=O)c1ccccc1 | inconclusive: 0.224 µM [inhibitor, full curve, poor fit]
39 | O=C1NC(=O)/C(=C\c2ccc(Br)o2)S1 | inactive
40 | CCOc1ccc(C(=O)Nc2cc(-c3nc4ccccc4[nH]3)ccc2C)cc1[N+](=O)[O-] | inconclusive: 14.1 µM [inhibitor, single point]
41 | O=C(CNS(=O)(=O)c1ccc(Br)s1)N1CCN(c2ccc(F)cc2)CC1 | inconclusive: 35.5 µM [inhibitor, single point]
42 | Cc1sc2ncnc(N/N=C/c3ccc(O)cc3)c2c1C | inconclusive: 35.5 µM [inhibitor, single point]
43 | O=C(Nc1cccc(-c2ccc(N3CCCCC3)nn2)c1)c1ccc(Br)o1 | inconclusive: 28.2 µM [inhibitor, single point]
44 | Cc1ccccc1-c1nsc(SCC(=O)c2ccc(Cl)cc2)n1 | inconclusive: 6.31 µM [inhibitor, single point]
45 | C[C@]12CCC(=O)C=C1CC[C@@H]1[C@@H]2CC[C@@]2(C)[C@H]1CC[C@]2(O)C(=O)CO | inconclusive: 6.31 µM [inhibitor, single point]
46 | COc1cccc(C(=O)/C=C/Nc2cccc(O)c2)c1 | inconclusive: 29.1 µM [inhibitor, single point]

Molecules listed so far that have bromine, in the order listed:
Row | Structure (SMILES) | Potency
38 | O=C(CCNC(=O)c1ccc(Br)cc1)NNC(=O)c1ccccc1 | inconclusive: 0.224 µM [inhibitor, full curve, poor fit]
39 | O=C1NC(=O)/C(=C\c2ccc(Br)o2)S1 | inactive
41 | O=C(CNS(=O)(=O)c1ccc(Br)s1)N1CCN(c2ccc(F)cc2)CC1 | inconclusive: 35.5 µM [inhibitor, single point]
43 | O=C(Nc1cccc(-c2ccc(N3CCCCC3)nn2)c1)c1ccc(Br)o1 | inconclusive: 28.2 µM [inhibitor, single point]

Following part

Row | Structure (SMILES) | Potency
47 | CCCCOC(=O)c1cccc(NC(=O)CC)c1 | inconclusive: 6.51 µM [activator, single point]
48 | Cc1cccc(NC(=O)CCOc2ccccc2)c1 | inactive
49 | COc1ccc(C(=O)Nc2sc3c(c2C#N)CCN(C(C)=O)C3)cc1 | inconclusive: 1 µM [inhibitor, partial curve, poor fit]
50 | CC(C)(C)c1ccc(C(=O)NC2=NC(c3cccc(F)c3)CC(=O)N2)cc1 (stereo not drawn) | inconclusive: 1 µM [inhibitor, full curve, poor fit]
51 | N/C(=N\OCc1ccc([N+](=O)[O-])cc1)c1ccccn1 | inconclusive: 0.631 µM [inhibitor, full curve, poor fit]
52 | CC(=C/c1ccccc1)/C=N/NC(=O)c1ccccn1 | inconclusive: 1.12 µM [inhibitor, full curve, poor fit]
53 | COC(=O)C1=C(C)NC(C)=C(C(=O)OC(C)(C)CN(C)CCC(c2ccccc2)c2ccccc2)C1c1cccc([N+](=O)[O-])c1 (stereo not drawn) | inconclusive: 9.2 µM [inhibitor, partial curve]
54 | O=C1CC(c2ccccc2)Cc2[nH]c(=O)c(-c3nc(-c4ccc(Cl)c(Cl)c4)cs3)cc21 (stereo not drawn) | inconclusive: 35.5 µM [inhibitor, single point]
55 | Cc1sc2nc(C3CC3)nc(NCCNS(C)(=O)=O)c2c1C | inconclusive: 17.8 µM [activator, single point]
56 | CCCCCCC/C=N/Nc1nnc(Cc2ccccc2)c(=O)[nH]1 | inconclusive: 0.316 µM [inhibitor, full curve, poor fit]
57 | COc1ccc(S(=O)(=O)N2CCC3(CC2)OCCN3S(=O)(=O)c2c(C)cc(C)cc2C)cc1 | inconclusive: 25.1 µM [inhibitor, single point]
58 | COc1ccc(CN(C)S(=O)(=O)c2nnc(NC(=O)c3ccccc3OC)s2)cc1OC | inconclusive: 31.6 µM [activator, single point]
59 | O=c1[nH]ncc2c3ccccc3n(Cc3ccc(F)cc3)c12 | inactive
60 | CC(C)N(C(C)C)S(=O)(=O)c1ccc(Cl)nc1 | inactive
61 | O=C(CSc1ccc(Cl)cc1)NC(=O)NC1CCCC1 | inactive
62 | COc1ccc(OC)c(CCNC(=O)c2nn(C)c3c2CS(=O)(=O)c2ccccc2-3)c1 | inconclusive: 10 µM [inhibitor, partial curve, poor fit]
63 | COc1ccccc1NC(=O)C(=O)c1cc(C)n(-c2cc(C)cc(C)c2)c1C | inactive
64 | Cc1cc(-c2n[nH]c(=S)n2/N=C/c2ccc(Cl)c([N+](=O)[O-])c2)n[nH]1 | inconclusive: 35.5 µM [inhibitor, single point]
65 | CC(=O)Oc1cccc(/C=C2\Sc3ccccc3C2=O)c1 | inactive
66 | CCOC(=O)C1CCCN(c2c(N3CCC(N4CCCCC4)CC3)c(=O)c2=O)C1 (stereo not drawn) | inactive
67 | Cc1ccc(S(=O)(=O)N2CCCCC2C(=O)N2CCN(c3ccccc3F)CC2)cc1 (stereo not drawn) | inconclusive: 20.6 µM [inhibitor, single point]
68 | CCCCNC(=O)c1ccc2c(c1)NC(=O)C(C(C)C)N2 (stereo not drawn) | inconclusive: 15.8 µM [activator, partial curve, poor fit]

Some of these compounds in order of SMILES length, low to high:
Row | Structure (SMILES) | Potency
28 | CCCn1nnc(NC(=O)c2ccc(-c3ccccc3)cc2)n1 | inactive
5 | O=C(CCN1C(=O)S/C(=C\c2ccccc2)C1=O)Nc1ccc(O)cc1C(=O)O | inconclusive: 6.31 µM [inhibitor, single point]
2 | CN(Cc1nc(Cc2cccc(C(F)(F)F)c2)no1)C1CC(C)(C)NC(C)(C)C1 | inconclusive: 1.12 µM [inhibitor, partial curve, poor fit]
